Data on one molecule can be found in article PMC7740640 (Xenobiotica; the fate of foreign compounds in biological …, 2020).

In the test the test system is human liver microsomes (HLM). Put plainly: Inhibition of C152 metabolism, HLM. The conditions noted are these: 30 μM C152 as substrate. Format: biochemical.

What is called IC50 is the concentration needed to halve the response being measured. A low value points to greater potency.

As for `Clc1ccccc1C(c1ccccc1)(c1ccccc1)n1ccnc1` [CTZ, clotrimazole], the IC50 is 240 ± 50 nM and the “Inhibition (maximal amplitude)” value is reported as 71±2%.
